Patent US7550431B2, “Spatially-defined macrocycles incorporating peptide bond surrogates” (Tranzyme Pharma Inc., priority 2003, dated 2009)

Sequences of proteins named here, by UniProt entry; tags and fusion partners are left off.
UniProt O43193, whole entry: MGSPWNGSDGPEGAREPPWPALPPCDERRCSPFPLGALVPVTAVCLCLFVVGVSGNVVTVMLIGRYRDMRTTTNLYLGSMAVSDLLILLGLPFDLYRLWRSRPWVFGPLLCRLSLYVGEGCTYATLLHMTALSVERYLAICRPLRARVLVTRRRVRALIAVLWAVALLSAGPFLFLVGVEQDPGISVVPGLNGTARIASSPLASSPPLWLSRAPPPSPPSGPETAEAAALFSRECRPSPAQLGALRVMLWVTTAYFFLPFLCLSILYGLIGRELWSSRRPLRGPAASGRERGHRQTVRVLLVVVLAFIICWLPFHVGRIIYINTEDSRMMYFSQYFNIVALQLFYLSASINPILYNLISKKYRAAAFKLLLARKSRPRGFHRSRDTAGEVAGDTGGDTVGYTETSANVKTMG

Biological target: human motilin receptor (Homo sapiens, UniProt O43193)
Assay: Competitive radioligand binding assay (motilin receptor), Method B1
Details: read-out: Binding Activity [Ki (nM)], [125I]-motilin competition, CHO cell membranes

CC(C)[C@H]1CC[C@@H](Cc2cccc(Cl)c2)NCCOc2ccccc2CCCNC(=O)[C@H](CN(C)C)NC1=O
Ki: 100 to 1000 nM

The match of structure and compound is tentative.
